Data source: PubChem BioAssay AID720505 (Drosophila RNAi Screening Center, 2013)
In all, the deposit lists about 20,000 reagents; this is a random part of those that have a named target and a result. Over the whole deposit, about 2,100 (10%) were called active. 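Raw plate signals without normalisation; calls rest on control-based scores that were not deposited; replicate 2 separates called from uncalled poorly.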 The numbers tell different reagents against one gene apart. A plus sign joins genes that one reagent is predicted to hit. Not given: the amount of reagent, the time to read-out.

- Aim: 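Knock-downs that reduce calcium influx once internal stores are emptied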 (primary screen)
- System: Drosophila S2R+ cells
- Reagent: long dsRNA against Drosophila genes
- Treatment: thapsigargin (2 µM) in calcium-free buffer to empty internal stores, then 2 mM calcium added back
- Read-out: 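Fluo-4 signal in 384-well plates read on a FLIPR after thapsigargin (2 µM, calcium-free) store depletion and 2 mM calcium add-back; unnormalised mean endpoint per well; screen run twice, selected wells retested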
- Reading the numbers: calcium signal and retest calcium signal: higher = more calcium entry after store depletion
- Hit rule: 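Knock-downs counted as hits when calcium entry dropped relative to STIM1 positive and Rho1 negative controls present on each plate; roughly 1500 genes called, with reductions of differing size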
- Calls: active = called as lowering calcium entry; inactive = not called

| Gene | reagent | calcium signal, replicate 1 | calcium signal, replicate 2 | retest calcium signal, replicate 1 | retest calcium signal, replicate 2 | call |
| --- | --- | --- | --- | --- | --- | --- |
| Uhg2 + snoRNA:Me18S-G1620 + snoRNA:U14:30Ea | 1 | 136 | 125 | – | – | inactive |
| Ser (GeneID 43275) | 1 | 158 | 182 | – | – | inactive |
| MED20 (GeneID 43952) | 1 | 130 | 115 | – | – | inactive |
| CG18808 (GeneID 59169) | 1 | 102 | 57.6 | – | – | inactive |
| Cpr67Fb (GeneID 39225) | 1 | 59.9 | 118 | – | – | inactive |
| Hsc70-5 (GeneID 36583) | 1 | 213 | 107 | – | – | inactive |
| Drep1 (GeneID 36290) | 1 | 114 | 187 | – | – | inactive |
| goe (GeneID 32660) | 1 | 96.3 | 158 | – | – | inactive |
| CG14174 (GeneID 39139) | 1 | 103 | 89 | – | – | inactive |
| Obp46a (GeneID 36088) | 1 | 106 | 108 | – | – | inactive |
| CG15701 (GeneID 36801) | 1 | 154 | 135 | – | – | inactive |
| CG4553 (GeneID 43078) | 1 | 249 | 165 | – | – | inactive |
| CG31635 (GeneID 33928) | 1 | 167 | 102 | – | – | inactive |
| CG31635 (GeneID 33928) | 2 | 145 | 122 | – | – | inactive |
| Mst85C (GeneID 41089) | 1 | 83.9 | 97.2 | – | – | inactive |
| CR14033 (GeneID 10178827) | 1 | 107 | 180 | – | – | inactive |
| CG11771 (GeneID 42984) | 1 | 225 | 237 | – | – | inactive |
| Panx (GeneID 37434) | 1 | 109 | 104 | – | – | inactive |
| CG16978 (GeneID 50446) | 1 | 138 | 89.2 | – | – | inactive |
| tws (GeneID 47877) | 1 | 76.7 | 120 | – | – | active |
| CG13442 (GeneID 37349) | 1 | 85.1 | 72.1 | – | – | inactive |
| Or9a (GeneID 31975) | 1 | 83.1 | 111 | – | – | inactive |
| CG17198 + CG17197 | 1 | 136 | 106 | – | – | inactive |
| CG17198 + CG17197 | 2 | 174 | 125 | – | – | inactive |
| Atet (GeneID 33636) | 1 | 109 | 104 | – | – | inactive |
| Tnpo (GeneID 38721) | 1 | 72.2 | 75.8 | – | – | active |
| exu (GeneID 37345) | 1 | 157 | 93 | – | – | inactive |
| qkr58E-2 (GeneID 37562) | 1 | 73.1 | 96.7 | – | – | active |
| mgl (GeneID 8674055) | 1 | 80.2 | 82 | – | – | inactive |
| mgl (GeneID 8674055) | 2 | 130 | 121 | – | – | inactive |
| mgl (GeneID 8674055) | 3 | 110 | 86.2 | – | – | inactive |
| mgl (GeneID 8674055) | 4 | 117 | 99.4 | – | – | inactive |
| Kr (GeneID 38012) | 1 | 103 | 116 | – | – | inactive |
| PSMG1 (GeneID 40719) | 1 | 117 | 131 | – | – | inactive |
| Ak1 (GeneID 39396) | 1 | 77.8 | 96.8 | – | – | inactive |
| Gr36a (GeneID 117488) | 1 | 94.1 | 134 | – | – | inactive |
| garz (GeneID 36337) | 1 | 158 | 132 | – | – | inactive |
| CCAP (GeneID 42683) | 1 | 103 | 131 | – | – | inactive |
| r-l (GeneID 42493) | 1 | 156 | 255 | 7548 | 148 | inactive |
| r-l (GeneID 42493) | 2 | 111 | 133 | – | – | inactive |
| CG7025 (GeneID 34042) | 1 | 62.9 | 198 | – | – | active |
| PGAP2 (GeneID 33258) | 1 | 115 | 201 | – | – | inactive |
| kipf (GeneID 40937) | 1 | 108 | 143 | 6193 | 131 | inactive |
| kipf (GeneID 40937) | 2 | 54.4 | 72.8 | – | – | active |
| CG6168 (GeneID 39273) | 1 | 71.2 | 111 | – | – | inactive |
| Ir11a (GeneID 32189) | 1 | 74.3 | 101 | – | – | active |
| CG7900 (GeneID 40957) | 1 | 107 | 172 | 5265 | 136 | inactive |
| CG7900 (GeneID 40957) | 2 | 170 | 101 | – | – | inactive |
| Ptp69D (GeneID 39443) | 1 | 97.1 | 70.9 | – | – | inactive |
| Cnx99A + Cnx14D | 1 | 107 | 106 | – | – | inactive |
| Sec31 (GeneID 35877) | 1 | 115 | 131 | – | – | inactive |
| CG5664 (GeneID 40371) | 1 | 83.6 | 139 | – | – | inactive |
| CG14441 (GeneID 31611) | 1 | 185 | 189 | – | – | inactive |
| CG31948 (GeneID 326178) | 1 | 182 | 97.2 | – | – | inactive |
| Ir7a (GeneID 31686) | 1 | 229 | 74.9 | – | – | inactive |
| Rlip (GeneID 42484) | 1 | 220 | 173 | – | – | inactive |
| dimm (GeneID 35404) | 1 | 243 | 89.5 | – | – | inactive |
| CG16865 (GeneID 34788) | 1 | 118 | 159 | – | – | inactive |
| DIP-delta (GeneID 5740816) | 1 | 112 | 78.8 | – | – | inactive |
| DIP-delta (GeneID 5740816) | 2 | 109 | 76 | – | – | inactive |
| CG43069 (GeneID 12798338) | 1 | 107 | 95 | – | – | inactive |
| RpL11 (GeneID 37235) | 1 | 110 | 90.4 | – | – | inactive |
| CG3281 (GeneID 41445) | 1 | 142 | 115 | – | – | inactive |
| Blimp-1 (GeneID 38638) | 1 | 92.9 | 78.6 | – | – | inactive |
| dome (GeneID 32976) | 1 | 117 | 109 | – | – | inactive |
| Kpc1 (GeneID 41826) | 1 | 78 | 129 | – | – | active |
| Bap111 (GeneID 31846) | 1 | 119 | 119 | 84.9 | 78 | inactive |
| CG7079 (GeneID 42488) | 1 | 228 | 151 | – | – | inactive |
| CG4968 (GeneID 34384) | 1 | 91.6 | 155 | 81.3 | 95.6 | inactive |
| dpr11 (GeneID 40800) | 1 | 149 | 114 | – | – | inactive |
| dpr11 (GeneID 40800) | 2 | 109 | 119 | – | – | inactive |
| dpr11 (GeneID 40800) | 3 | 109 | 114 | – | – | inactive |
| GCC88 (GeneID 41350) | 1 | 99.5 | 87.9 | – | – | inactive |
| CG32638 (GeneID 318133) | 1 | – | – | – | – | active |
| blo (GeneID 35866) | 1 | 151 | 175 | – | – | inactive |
| Ctr1A (GeneID 31601) | 1 | 151 | 89 | – | – | inactive |
| CG12729 (GeneID 31515) | 1 | 229 | 106 | – | – | inactive |
| CG7131 (GeneID 42197) | 1 | 225 | 280 | – | – | inactive |
| CG1387 (GeneID 31770) | 1 | 135 | 79.2 | – | – | inactive |
| asRNA:CR43299 + CG8119 | 1 | 134 | 174 | – | – | inactive |
| CG12784 (GeneID 41903) | 1 | 130 | 112 | – | – | inactive |
| CG9289 (GeneID 34195) | 1 | 160 | 155 | – | – | inactive |
| CG34433 (GeneID 5740702) | 1 | 207 | 167 | – | – | inactive |

Records above whose gene name starts with G or g:
| Gene | reagent | calcium signal, replicate 1 | calcium signal, replicate 2 | retest calcium signal, replicate 1 | retest calcium signal, replicate 2 | call |
| --- | --- | --- | --- | --- | --- | --- |
| goe (GeneID 32660) | 1 | 96.3 | 158 | – | – | inactive |
| Gr36a (GeneID 117488) | 1 | 94.1 | 134 | – | – | inactive |
| garz (GeneID 36337) | 1 | 158 | 132 | – | – | inactive |
| GCC88 (GeneID 41350) | 1 | 99.5 | 87.9 | – | – | inactive |
